# The supplement of paper PMC8728848
# The list shows a part of the results.
# B1: R2-fiber (Pseudomonas aeruginosa), Q9S576 (protein)
# chain: HHHHHHKVAKDLVVSLAYQVRTEDGVLVDESPVSAPLDYLHGHGSLISGLETALEGHEVGDKFDVAVGANDAYGQYDENLVQRVPKDVFMGVDELQVGMRFLAETDQGPVPVEITAVEDDHVVVDGNHMLAGQNLKFNVEVVAIREATEEELAHGHVHGAHDHHHDHDHDGCCGGHGHDHGHEHGGEGCCGGKGNGGCGCHENLYFQGVTAGMALAATDIPGLDASKLVSGVLAEQRLPVFARGLATAVSNSSDPNTATVPLMLTNHANGPVAGRYFYIQSMFYPDQNGNASQIATSYNATSEMYVRVSYAANPSIREWLPWQRCDIGGSFTKEADGELPGGVNLDSMVTSGWWSQSFTAQAASGANYPIVRAGLLHVYAASSNFIYQTYQAYDGESFYFRCRHSNTWFPWRRMWHGGDFNPSDYLLKSGFYWNALPGKPATFPPSAHNHDVGQLTSGILPLARGGVGSNTAAGARSTIGAGVPATASLGASGWWRDNDTGLIRQWGQVTCPADADASITFPIPFPTLCLGGYANQTSAFHPGTDASTGFRGATTTTAVIRNGYFAQAVLSWEAFGR
# How the values were obtained:
# Experiment in all cases: glycan array binding signal (z-score within array); higher = stronger binding
# Conditions in all cases: glycan notation: IUPAC condensed, linker removed
# [1] = target: Fuc(a1-2)[GalNAc(b1-3)]Gal
# Method in brief: (§1)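 The binding signal is a Z-score computed within each array. Data were drawn from 3228 arrays in the Consortium for Functional Glycomics database, restricted to those with a known protein sequence. Scores were averaged over arrays of the same protein sequence at different concentrations or buffers, and over linkers, and negative values can be taken as non-binding.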
# [2] = target: Fuc(a1-3)GlcNAc
# Method in brief: as §1
# [3] = target: Fuc(a1-3)[Gal(b1-4)]Glc6S
# Method in brief: as §1
# [4] = target: Fuc(a1-3)[Gal(b1-4)]GlcNAc
# Method in brief: as §1
# [5] = target: Fuc(a1-3)[Gal(b1-4)]GlcNAc(b1-2)Man
# Method in brief: as §1
# [6] = target: Fuc(a1-3)[Gal(b1-4)]GlcNAc(b1-2)Man(a1-3)[Fuc(a1-3)[Gal(b1-4)]GlcNAc(b1-2)Man(a1-6)]Man(b1-4)GlcNAc(b1-4)GlcNAc
# Method in brief: as §1
# [7] = target: Fuc(a1-3)[Gal(b1-4)]GlcNAc(b1-2)Man(a1-3)[Fuc(a1-3)[Gal(b1-4)]GlcNAc(b1-2)Man(a1-6)]Man(b1-4)GlcNAc(b1-4)[Fuc(a1-6)]GlcNAc
# Method in brief: as §1
# [8] = target: Fuc(a1-3)[Gal(b1-4)]GlcNAc(b1-3)Gal(b1-3)[Fuc(a1-4)]GlcNAc
# Method in brief: as §1
# [9] = target: Fuc(a1-3)[Gal(b1-4)]GlcNAc(b1-3)Gal(b1-4)[Fuc(a1-3)]GlcNAc
# Method in brief: as §1
# [10] = target: Fuc(a1-3)[Gal(b1-4)]GlcNAc(b1-3)Gal(b1-4)[Fuc(a1-3)]GlcNAc(b1-3)Gal(b1-4)[Fuc(a1-3)]GlcNAc
# Method in brief: as §1
# [11] = target: Fuc(a1-3)[Gal(b1-4)]GlcNAc(b1-3)GalNAc
# Method in brief: as §1
# [12] = target: Fuc(a1-3)[Gal(b1-4)]GlcNAc(b1-6)GalNAc
# Method in brief: as §1
# [13] = target: Fuc(a1-3)[Gal(b1-4)]GlcNAc(b1-6)[Gal(b1-3)GlcNAc(b1-3)]Gal(b1-4)Glc
# Method in brief: as §1
# [14] = target: Fuc(a1-3)[Gal(b1-4)]GlcNAc6S
# Method in brief: as §1
# [15] = target: Fuc(a1-3)[Gal3S(b1-4)]Glc
# Method in brief: as §1
# [16] = target: Fuc(a1-3)[Gal3S(b1-4)]GlcNAc
# Method in brief: as §1
# [17] = target: Fuc(a1-3)[Gal3S(b1-4)]GlcNAc6S
# Method in brief: as §1
# [18] = target: Fuc(a1-3)[GalNAc(b1-4)]GlcNAc
# Method in brief: as §1
# [19] = target: Fuc(a1-3)[GalNAc(b1-4)]GlcNAc6S
# Method in brief: as §1
# [20] = target: Fuc(a1-4)GlcNAc
# Method in brief: as §1
# [21] = target: Fuc(b1-3)GlcNAc
# Method in brief: as §1
# [22] = target: Gal(a1-2)Gal
# Method in brief: as §1
# [23] = target: Gal(a1-3)Gal
# Method in brief: as §1
# [24] = target: Gal(a1-3)Gal(b1-3)GlcNAc
# Method in brief: as §1
# [25] = target: Gal(a1-3)Gal(b1-3)GlcNAc(b1-2)Man
# Method in brief: as §1
# [26] = target: Gal(a1-3)Gal(b1-3)GlcNAc(b1-2)Man(a1-3)[Gal(a1-3)Gal(b1-3)GlcNAc(b1-2)Man(a1-6)]Man(b1-4)GlcNAc(b1-4)GlcNAc
# Method in brief: as §1
# [27] = target: Gal(a1-3)Gal(b1-3)GlcNAc(b1-3)GalNAc
# Method in brief: as §1
# [28] = target: Gal(a1-3)Gal(b1-3)GlcNAc(b1-6)GalNAc
# Method in brief: as §1
# [29] = target: Gal(a1-3)Gal(b1-3)[Fuc(a1-4)]GlcNAc(b1-2)Man(a1-3)[Gal(a1-3)Gal(b1-3)[Fuc(a1-4)]GlcNAc(b1-2)Man(a1-6)]Man(b1-4)GlcNAc(b1-4)GlcNAc
# Method in brief: as §1
# [30] = target: Gal(a1-3)Gal(b1-4)Glc
# Method in brief: as §1
# [31] = target: Gal(a1-3)Gal(b1-4)GlcNAc
# Method in brief: as §1
# [32] = target: Gal(a1-3)Gal(b1-4)GlcNAc(b1-2)Man
# Method in brief: as §1
# [33] = target: Gal(a1-3)Gal(b1-4)GlcNAc(b1-2)Man(a1-3)[Gal(a1-3)Gal(b1-4)GlcNAc(b1-2)Man(a1-6)]Man(b1-4)GlcNAc(b1-4)GlcNAc
# Method in brief: as §1
# [34] = target: Gal(a1-3)Gal(b1-4)GlcNAc(b1-3)GalNAc
# Method in brief: as §1
# [35] = target: Gal(a1-3)Gal(b1-4)GlcNAc(b1-6)GalNAc
# Method in brief: as §1
# [36] = target: Gal(a1-3)Gal(b1-4)[Fuc(a1-3)]GlcNAc
# Method in brief: as §1
# [37] = target: Gal(a1-3)Gal(b1-4)[Fuc(a1-3)]GlcNAc(b1-2)Man(a1-3)[Gal(a1-3)Gal(b1-4)[Fuc(a1-3)]GlcNAc(b1-2)Man(a1-6)]Man(b1-4)GlcNAc(b1-4)GlcNAc
# Method in brief: as §1
# [38] = target: Gal(a1-3)GalNAc
# Method in brief: as §1
# [39] = target: Gal(a1-3)[Gal(a1-4)]Gal(b1-4)GlcNAc
# Method in brief: as §1
# [40] = target: Gal(a1-4)Gal(b1-3)GlcNAc(b1-2)Man(a1-3)[Gal(a1-4)Gal(b1-3)GlcNAc(b1-2)Man(a1-6)]Man(b1-4)GlcNAc(b1-4)GlcNAc
# Method in brief: as §1
# [41] = target: Gal(a1-4)Gal(b1-4)Glc
# Method in brief: as §1
# [42] = target: Gal(a1-4)Gal(b1-4)GlcNAc
# Method in brief: as §1
# [43] = target: Gal(a1-4)Gal(b1-4)GlcNAc(b1-2)Man(a1-3)[Gal(a1-4)Gal(b1-4)GlcNAc(b1-2)Man(a1-6)]Man(b1-4)GlcNAc(b1-4)GlcNAc
# Method in brief: as §1
# [44] = target: Gal(a1-4)Gal(b1-4)GlcNAc(b1-3)Gal(b1-4)Glc
# Method in brief: as §1
# [45] = target: Gal(a1-4)GlcNAc
# Method in brief: as §1
# [46] = target: Gal(a1-6)Glc
# Method in brief: as §1
# [47] = target: Gal(b1-2)Gal
# Method in brief: as §1
# [48] = target: Gal(b1-3)Gal
# Method in brief: as §1
# [49] = target: Gal(b1-3)Gal(b1-4)GlcNAc
# Method in brief: as §1
# [50] = target: Gal(b1-3)GalNAc
# Method in brief: as §1
# [51] = target: Gal(b1-3)GalNAc(a1-3)[Fuc(a1-2)]Gal(b1-4)Glc
# Method in brief: as §1
# [52] = target: Gal(b1-3)GalNAc(a1-3)[Fuc(a1-2)]Gal(b1-4)GlcNAc
# Method in brief: as §1
# [53] = target: Gal(b1-3)GalNAc(b1-3)Gal
# Method in brief: as §1
# [54] = target: Gal(b1-3)GalNAc(b1-3)Gal(a1-4)Gal(b1-4)Glc
# Method in brief: as §1
# [55] = target: Gal(b1-3)GalNAc(b1-4)Gal(b1-4)Glc
# Method in brief: as §1
# [56] = target: Gal(b1-3)GalNAc(b1-4)[Neu5Ac(a2-3)]Gal(b1-4)Glc
# Method in brief: as §1
# [57] = target: Gal(b1-3)GlcNAc
# Method in brief: as §1
# [58] = target: Gal(b1-3)GlcNAc(a1-3)Gal(b1-4)GlcNAc
# Method in brief: as §1
# [59] = target: Gal(b1-3)GlcNAc(a1-6)Gal(b1-4)GlcNAc
# Method in brief: as §1
# [60] = target: Gal(b1-3)GlcNAc(b1-2)Man
# Method in brief: as §1
binder,measurement,setting,value
B1,glycan array binding signal (z-score),[1],-0.256
same,glycan array binding signal (z-score),[2],-0.65
same,glycan array binding signal (z-score),[3],0.115
same,glycan array binding signal (z-score),[4],0.049
same,glycan array binding signal (z-score),[5],0.593
same,glycan array binding signal (z-score),[6],-0.104
same,glycan array binding signal (z-score),[7],0.47
same,glycan array binding signal (z-score),[8],0
same,glycan array binding signal (z-score),[9],-0.018
same,glycan array binding signal (z-score),[10],0.417
same,glycan array binding signal (z-score),[11],-0.536
same,glycan array binding signal (z-score),[12],2.09
same,glycan array binding signal (z-score),[13],-1.36
same,glycan array binding signal (z-score),[14],-0.596
same,glycan array binding signal (z-score),[15],1.21
same,glycan array binding signal (z-score),[16],-0.646
same,glycan array binding signal (z-score),[17],1.55
same,glycan array binding signal (z-score),[18],0.107
same,glycan array binding signal (z-score),[19],-0.098
same,glycan array binding signal (z-score),[20],0.08
same,glycan array binding signal (z-score),[21],0.241
same,glycan array binding signal (z-score),[22],-0.187
same,glycan array binding signal (z-score),[23],0.366
same,glycan array binding signal (z-score),[24],-0.628
same,glycan array binding signal (z-score),[25],-0.284
same,glycan array binding signal (z-score),[26],0.346
same,glycan array binding signal (z-score),[27],0.372
same,glycan array binding signal (z-score),[28],0.045
same,glycan array binding signal (z-score),[29],0.078
same,glycan array binding signal (z-score),[30],-0.505
same,glycan array binding signal (z-score),[31],-0.291
same,glycan array binding signal (z-score),[32],0.037
same,glycan array binding signal (z-score),[33],1
same,glycan array binding signal (z-score),[34],-0.829
same,glycan array binding signal (z-score),[35],-0.437
same,glycan array binding signal (z-score),[36],-0.968
same,glycan array binding signal (z-score),[37],0.638
same,glycan array binding signal (z-score),[38],-0.479
same,glycan array binding signal (z-score),[39],-0.139
same,glycan array binding signal (z-score),[40],0.322
same,glycan array binding signal (z-score),[41],-0.036
same,glycan array binding signal (z-score),[42],-0.114
same,glycan array binding signal (z-score),[43],0.239
same,glycan array binding signal (z-score),[44],-0.891
same,glycan array binding signal (z-score),[45],-0.479
same,glycan array binding signal (z-score),[46],-0.42
same,glycan array binding signal (z-score),[47],0.015
same,glycan array binding signal (z-score),[48],-0.094
same,glycan array binding signal (z-score),[49],-0.114
same,glycan array binding signal (z-score),[50],-0.235
same,glycan array binding signal (z-score),[51],-0.584
same,glycan array binding signal (z-score),[52],-0.391
same,glycan array binding signal (z-score),[53],-1.13
same,glycan array binding signal (z-score),[54],-0.931
same,glycan array binding signal (z-score),[55],-0.446
same,glycan array binding signal (z-score),[56],-0.537
same,glycan array binding signal (z-score),[57],-0.177
same,glycan array binding signal (z-score),[58],-1.35
same,glycan array binding signal (z-score),[59],0.397
same,glycan array binding signal (z-score),[60],0.298

# Rewritten as tab-separated lines: part of the list above.
binder	measurement	setting	value
B1	glycan array binding signal (z-score)	[13]	-1.36
same	glycan array binding signal (z-score)	[18]	0.107
same	glycan array binding signal (z-score)	[33]	1
same	glycan array binding signal (z-score)	[35]	-0.437
